Results reported in PMC4256206.
No constants are given. Whether binding was seen depends on the method and setting. Binding seen in cells or lysates may run through a third protein. Some results given as binding are weak or reduced against the parent protein; the word gives no strength. Where a sequence is shown, tags or fusion partners need not be part of it. Values belong to the molecule of their own block, whether it stands above or below them.

Amino acid sequences for entries named in this document (tags omitted).
UniProt P38420: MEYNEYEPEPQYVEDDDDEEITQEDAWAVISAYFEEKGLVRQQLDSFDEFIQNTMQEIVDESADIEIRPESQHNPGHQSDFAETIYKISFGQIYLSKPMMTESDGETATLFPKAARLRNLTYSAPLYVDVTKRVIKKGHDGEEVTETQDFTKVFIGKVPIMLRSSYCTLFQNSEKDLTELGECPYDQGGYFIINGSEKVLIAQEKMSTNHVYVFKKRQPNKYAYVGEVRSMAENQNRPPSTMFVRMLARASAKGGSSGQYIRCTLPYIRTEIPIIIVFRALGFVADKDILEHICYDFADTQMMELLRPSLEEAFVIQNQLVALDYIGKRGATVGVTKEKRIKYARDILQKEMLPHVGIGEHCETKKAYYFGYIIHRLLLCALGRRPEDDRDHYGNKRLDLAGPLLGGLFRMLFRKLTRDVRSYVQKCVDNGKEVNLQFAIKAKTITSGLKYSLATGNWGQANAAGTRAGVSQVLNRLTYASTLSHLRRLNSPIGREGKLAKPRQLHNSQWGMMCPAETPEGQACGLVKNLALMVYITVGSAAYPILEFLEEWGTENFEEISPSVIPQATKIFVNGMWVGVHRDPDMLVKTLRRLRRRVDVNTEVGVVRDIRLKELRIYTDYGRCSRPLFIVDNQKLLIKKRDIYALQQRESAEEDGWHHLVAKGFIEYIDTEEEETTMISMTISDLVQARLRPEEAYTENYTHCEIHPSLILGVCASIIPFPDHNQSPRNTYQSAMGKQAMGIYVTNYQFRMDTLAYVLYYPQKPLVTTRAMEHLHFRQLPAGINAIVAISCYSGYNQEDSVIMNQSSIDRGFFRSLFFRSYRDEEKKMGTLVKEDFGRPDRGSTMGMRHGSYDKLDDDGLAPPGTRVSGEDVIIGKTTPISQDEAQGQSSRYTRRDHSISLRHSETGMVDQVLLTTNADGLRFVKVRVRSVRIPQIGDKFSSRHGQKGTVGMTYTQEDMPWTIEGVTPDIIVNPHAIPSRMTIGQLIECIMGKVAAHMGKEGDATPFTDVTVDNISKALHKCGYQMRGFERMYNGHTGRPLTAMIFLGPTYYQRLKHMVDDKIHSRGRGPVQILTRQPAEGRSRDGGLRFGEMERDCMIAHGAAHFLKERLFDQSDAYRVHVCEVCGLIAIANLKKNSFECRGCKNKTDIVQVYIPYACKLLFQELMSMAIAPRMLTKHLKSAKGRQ
UniProt Q9SP32: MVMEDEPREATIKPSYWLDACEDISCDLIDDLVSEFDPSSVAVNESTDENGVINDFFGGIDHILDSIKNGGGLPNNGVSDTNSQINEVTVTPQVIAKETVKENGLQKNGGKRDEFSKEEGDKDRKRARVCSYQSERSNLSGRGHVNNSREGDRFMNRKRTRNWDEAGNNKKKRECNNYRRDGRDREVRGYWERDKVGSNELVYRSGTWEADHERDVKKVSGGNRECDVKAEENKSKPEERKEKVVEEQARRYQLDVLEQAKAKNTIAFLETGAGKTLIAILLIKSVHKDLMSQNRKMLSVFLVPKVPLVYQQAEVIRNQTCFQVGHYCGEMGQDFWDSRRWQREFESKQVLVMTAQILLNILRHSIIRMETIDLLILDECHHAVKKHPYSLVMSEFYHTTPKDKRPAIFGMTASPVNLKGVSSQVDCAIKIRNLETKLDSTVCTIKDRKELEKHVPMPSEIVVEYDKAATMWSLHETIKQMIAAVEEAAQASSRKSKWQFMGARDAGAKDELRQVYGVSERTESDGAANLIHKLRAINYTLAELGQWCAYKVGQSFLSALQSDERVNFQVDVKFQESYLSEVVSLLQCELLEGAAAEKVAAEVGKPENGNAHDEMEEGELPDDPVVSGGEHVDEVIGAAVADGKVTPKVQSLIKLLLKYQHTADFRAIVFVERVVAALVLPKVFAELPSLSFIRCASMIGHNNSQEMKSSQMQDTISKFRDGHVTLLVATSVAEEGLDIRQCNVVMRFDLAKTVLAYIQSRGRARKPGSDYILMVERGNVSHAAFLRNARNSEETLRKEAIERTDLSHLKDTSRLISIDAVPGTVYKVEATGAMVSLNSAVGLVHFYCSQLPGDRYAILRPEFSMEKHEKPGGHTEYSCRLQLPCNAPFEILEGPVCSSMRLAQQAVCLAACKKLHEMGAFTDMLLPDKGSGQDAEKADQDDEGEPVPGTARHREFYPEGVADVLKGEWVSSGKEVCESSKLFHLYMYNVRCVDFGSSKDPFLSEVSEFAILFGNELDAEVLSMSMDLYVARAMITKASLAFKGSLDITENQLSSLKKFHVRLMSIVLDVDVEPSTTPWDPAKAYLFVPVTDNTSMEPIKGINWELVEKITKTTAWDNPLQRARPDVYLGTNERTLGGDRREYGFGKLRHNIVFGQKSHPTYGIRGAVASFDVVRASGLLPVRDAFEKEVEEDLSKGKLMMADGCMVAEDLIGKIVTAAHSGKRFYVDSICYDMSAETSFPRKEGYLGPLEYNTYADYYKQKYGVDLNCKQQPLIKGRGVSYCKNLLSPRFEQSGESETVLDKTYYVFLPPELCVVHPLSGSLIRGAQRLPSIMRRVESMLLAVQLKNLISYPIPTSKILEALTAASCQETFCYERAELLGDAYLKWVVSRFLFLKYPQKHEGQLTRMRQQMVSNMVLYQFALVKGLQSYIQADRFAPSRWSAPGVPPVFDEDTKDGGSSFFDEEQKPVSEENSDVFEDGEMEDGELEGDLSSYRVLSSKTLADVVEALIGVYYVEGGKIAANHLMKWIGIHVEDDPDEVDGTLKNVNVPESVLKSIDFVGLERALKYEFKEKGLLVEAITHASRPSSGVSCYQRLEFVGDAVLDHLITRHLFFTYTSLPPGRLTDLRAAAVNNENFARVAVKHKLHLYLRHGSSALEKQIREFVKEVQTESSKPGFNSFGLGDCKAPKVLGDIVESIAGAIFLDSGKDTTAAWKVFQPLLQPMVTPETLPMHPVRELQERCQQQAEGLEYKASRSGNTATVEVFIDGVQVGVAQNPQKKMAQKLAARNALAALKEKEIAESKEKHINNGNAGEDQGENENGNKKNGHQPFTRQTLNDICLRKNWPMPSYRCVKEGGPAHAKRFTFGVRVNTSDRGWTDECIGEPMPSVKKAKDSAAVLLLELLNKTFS
UniProt Q9LXW7: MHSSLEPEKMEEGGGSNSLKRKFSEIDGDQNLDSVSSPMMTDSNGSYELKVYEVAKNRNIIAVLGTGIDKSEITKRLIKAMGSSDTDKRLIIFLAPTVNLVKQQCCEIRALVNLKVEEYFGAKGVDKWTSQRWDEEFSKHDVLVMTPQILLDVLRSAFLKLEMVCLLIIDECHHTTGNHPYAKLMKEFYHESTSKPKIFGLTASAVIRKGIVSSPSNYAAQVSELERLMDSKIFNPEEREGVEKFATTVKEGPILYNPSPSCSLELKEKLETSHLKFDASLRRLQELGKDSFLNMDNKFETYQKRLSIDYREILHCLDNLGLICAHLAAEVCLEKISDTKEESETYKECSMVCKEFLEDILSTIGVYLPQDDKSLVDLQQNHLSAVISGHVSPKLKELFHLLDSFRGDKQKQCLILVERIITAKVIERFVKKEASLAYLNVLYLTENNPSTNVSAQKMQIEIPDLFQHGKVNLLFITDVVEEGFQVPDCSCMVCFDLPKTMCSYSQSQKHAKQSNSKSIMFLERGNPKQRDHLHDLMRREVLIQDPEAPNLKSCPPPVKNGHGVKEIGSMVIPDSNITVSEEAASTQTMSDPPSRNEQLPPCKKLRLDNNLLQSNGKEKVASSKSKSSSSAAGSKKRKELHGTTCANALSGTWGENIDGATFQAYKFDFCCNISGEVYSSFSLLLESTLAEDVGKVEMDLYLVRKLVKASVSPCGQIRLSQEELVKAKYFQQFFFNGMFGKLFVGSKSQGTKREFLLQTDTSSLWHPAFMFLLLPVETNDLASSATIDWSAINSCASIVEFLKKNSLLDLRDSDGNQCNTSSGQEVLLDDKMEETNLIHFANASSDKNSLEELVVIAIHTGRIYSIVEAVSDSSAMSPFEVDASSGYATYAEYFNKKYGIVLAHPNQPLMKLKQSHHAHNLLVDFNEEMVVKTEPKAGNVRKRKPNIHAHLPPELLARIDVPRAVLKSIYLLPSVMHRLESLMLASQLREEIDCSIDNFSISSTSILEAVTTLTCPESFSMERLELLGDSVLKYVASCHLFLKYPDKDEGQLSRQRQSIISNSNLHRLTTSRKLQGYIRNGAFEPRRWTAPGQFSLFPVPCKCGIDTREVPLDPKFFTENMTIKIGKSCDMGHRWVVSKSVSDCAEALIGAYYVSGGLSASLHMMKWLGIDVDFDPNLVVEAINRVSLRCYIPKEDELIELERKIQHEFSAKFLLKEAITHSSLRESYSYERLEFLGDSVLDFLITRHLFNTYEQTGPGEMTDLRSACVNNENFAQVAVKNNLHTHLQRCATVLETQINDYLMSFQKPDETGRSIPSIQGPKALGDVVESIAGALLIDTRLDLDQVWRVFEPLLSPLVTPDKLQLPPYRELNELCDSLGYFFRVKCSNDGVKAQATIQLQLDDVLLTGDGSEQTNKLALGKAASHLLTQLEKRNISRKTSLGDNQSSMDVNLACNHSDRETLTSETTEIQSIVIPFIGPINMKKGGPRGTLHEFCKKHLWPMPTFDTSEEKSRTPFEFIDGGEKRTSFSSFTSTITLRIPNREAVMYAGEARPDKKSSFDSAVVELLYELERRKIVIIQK
UniProt P84634: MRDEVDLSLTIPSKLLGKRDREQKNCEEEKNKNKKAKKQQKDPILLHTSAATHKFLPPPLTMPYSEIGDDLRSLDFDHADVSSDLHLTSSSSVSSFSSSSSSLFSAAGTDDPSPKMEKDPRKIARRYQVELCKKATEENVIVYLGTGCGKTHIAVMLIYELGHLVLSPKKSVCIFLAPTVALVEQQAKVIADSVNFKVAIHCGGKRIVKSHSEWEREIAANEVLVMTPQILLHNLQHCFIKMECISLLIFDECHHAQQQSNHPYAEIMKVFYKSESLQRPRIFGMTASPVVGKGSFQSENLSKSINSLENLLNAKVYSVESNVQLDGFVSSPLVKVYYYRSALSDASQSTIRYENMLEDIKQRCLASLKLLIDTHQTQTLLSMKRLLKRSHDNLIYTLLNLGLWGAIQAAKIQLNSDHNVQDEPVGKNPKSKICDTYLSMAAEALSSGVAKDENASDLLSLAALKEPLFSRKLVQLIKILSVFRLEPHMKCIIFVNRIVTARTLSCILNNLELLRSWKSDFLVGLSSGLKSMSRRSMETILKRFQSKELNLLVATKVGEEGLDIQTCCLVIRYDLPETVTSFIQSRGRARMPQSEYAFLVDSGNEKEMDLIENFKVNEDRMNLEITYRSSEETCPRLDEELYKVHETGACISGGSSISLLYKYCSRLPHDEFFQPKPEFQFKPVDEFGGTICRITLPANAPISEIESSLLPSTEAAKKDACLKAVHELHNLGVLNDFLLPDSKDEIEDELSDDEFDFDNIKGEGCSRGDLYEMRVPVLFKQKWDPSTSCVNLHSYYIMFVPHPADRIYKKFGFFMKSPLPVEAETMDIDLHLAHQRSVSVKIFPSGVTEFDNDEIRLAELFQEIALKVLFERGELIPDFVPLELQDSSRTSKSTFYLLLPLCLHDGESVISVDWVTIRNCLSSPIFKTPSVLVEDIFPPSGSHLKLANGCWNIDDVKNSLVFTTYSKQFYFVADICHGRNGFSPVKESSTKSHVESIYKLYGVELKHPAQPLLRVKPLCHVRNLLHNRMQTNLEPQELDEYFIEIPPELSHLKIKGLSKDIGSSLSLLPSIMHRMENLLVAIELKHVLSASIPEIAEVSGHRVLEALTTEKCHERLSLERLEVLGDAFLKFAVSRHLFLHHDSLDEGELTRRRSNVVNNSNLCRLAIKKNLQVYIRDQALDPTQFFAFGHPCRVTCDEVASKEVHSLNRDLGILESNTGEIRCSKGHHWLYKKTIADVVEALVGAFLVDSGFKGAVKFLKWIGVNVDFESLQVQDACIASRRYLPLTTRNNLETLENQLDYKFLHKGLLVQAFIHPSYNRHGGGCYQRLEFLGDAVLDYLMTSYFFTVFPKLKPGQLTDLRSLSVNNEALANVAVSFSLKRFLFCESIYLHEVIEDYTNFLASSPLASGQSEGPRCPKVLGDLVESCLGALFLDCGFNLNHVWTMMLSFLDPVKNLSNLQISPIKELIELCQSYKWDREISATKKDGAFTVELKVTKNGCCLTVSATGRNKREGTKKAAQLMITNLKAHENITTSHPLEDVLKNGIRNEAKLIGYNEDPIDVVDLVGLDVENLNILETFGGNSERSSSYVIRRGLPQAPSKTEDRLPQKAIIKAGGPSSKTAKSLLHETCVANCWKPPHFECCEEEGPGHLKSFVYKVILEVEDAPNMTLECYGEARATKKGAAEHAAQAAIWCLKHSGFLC

What was measured:
[1] = molecular target: T1, PRL1-YFP expressed from the pPRL1::PRL1-YFP transgene in the prl1-2 complementation line (Arabidopsis (Col)) (UniProt Q42384); experiment: co-IP; protein extracts of transgenic plants harbouring pPRL1::PRL1-YFP; anti-YFP or anti-RPB2 antibodies coupled to protein G agarose beads, 4 h at 4°C; five washes; western blot
T1 sequence: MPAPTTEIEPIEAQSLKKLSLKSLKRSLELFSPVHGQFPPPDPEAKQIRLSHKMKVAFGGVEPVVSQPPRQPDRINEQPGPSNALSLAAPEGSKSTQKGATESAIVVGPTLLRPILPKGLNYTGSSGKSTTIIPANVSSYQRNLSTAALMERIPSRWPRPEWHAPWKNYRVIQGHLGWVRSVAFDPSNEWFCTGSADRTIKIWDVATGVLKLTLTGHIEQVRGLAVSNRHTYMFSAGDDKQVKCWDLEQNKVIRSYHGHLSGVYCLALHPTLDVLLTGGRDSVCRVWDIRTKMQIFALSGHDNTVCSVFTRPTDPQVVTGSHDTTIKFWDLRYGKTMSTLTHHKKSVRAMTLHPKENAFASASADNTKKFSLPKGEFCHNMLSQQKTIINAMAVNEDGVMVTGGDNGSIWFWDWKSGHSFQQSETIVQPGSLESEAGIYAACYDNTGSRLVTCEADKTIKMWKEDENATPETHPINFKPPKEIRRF

[2] = molecular target: T2, PRL1-YFP transiently expressed in N. benthamiana (Arabidopsis (Col)) (UniProt Q42384); experiment: co-IP; PRL1-YFP or YFP co-expressed with DCL1-MYC or SE-MYC in N. benthamiana; extracts incubated with anti-YFP or anti-MYC antibodies coupled to protein G agarose beads; western blot
T2 sequence: T1 sequence

[3] = molecular target: RPB2, the second largest subunit of Pol II (Arabidopsis (endogenous in transgenic plants)) (UniProt P38420); experiment: co-IP; protein extracts of transgenic plants harbouring pPRL1::PRL1-YFP; anti-YFP or anti-RPB2 antibodies coupled to protein G agarose beads, 4 h at 4°C; five washes; western blot
[4] = molecular target: T3, Cell Division Cycle 5 (CDC5) fused with the N-terminal fragment of Venus (nVenus) (Arabidopsis) (UniProt P92948); experiment: split reporter; BiFC: paired cCFP and nVenus constructs co-infiltrated in N. benthamiana leaves; yellow fluorescence read by confocal microscopy; 30 nuclei examined for each pair
T3 sequence: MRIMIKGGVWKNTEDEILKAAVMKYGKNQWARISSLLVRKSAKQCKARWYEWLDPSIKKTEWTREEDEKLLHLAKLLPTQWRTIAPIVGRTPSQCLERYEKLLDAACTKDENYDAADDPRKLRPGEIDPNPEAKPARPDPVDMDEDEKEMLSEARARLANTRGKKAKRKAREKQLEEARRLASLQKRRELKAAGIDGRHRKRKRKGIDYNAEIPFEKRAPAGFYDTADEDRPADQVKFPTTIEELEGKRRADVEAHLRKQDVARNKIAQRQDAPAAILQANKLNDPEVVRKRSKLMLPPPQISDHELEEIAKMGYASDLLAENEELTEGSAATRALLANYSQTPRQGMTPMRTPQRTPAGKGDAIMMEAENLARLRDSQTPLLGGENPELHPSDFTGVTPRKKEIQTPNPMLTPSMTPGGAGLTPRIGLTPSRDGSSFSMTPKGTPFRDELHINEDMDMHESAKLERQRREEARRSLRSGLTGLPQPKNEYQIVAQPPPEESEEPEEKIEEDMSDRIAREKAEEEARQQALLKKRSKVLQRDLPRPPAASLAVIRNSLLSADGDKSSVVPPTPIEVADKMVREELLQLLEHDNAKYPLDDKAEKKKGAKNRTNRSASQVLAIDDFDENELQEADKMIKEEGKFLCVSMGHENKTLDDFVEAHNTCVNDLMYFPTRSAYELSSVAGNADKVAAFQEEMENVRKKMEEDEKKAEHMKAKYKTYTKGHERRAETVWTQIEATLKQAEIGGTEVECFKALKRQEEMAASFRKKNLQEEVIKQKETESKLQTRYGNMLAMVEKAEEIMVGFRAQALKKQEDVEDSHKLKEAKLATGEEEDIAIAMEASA

[5] = molecular target: DCL1 fused with the N-terminal fragment of Venus (nVenus) (Arabidopsis) (UniProt Q9SP32); experiment: as above
[6] = molecular target: T4, HYPONASTIC LEAVES 1 (HYL1) fused with the N-terminal fragment of Venus (nVenus) (Arabidopsis) (UniProt O04492); experiment: as above
T4 sequence: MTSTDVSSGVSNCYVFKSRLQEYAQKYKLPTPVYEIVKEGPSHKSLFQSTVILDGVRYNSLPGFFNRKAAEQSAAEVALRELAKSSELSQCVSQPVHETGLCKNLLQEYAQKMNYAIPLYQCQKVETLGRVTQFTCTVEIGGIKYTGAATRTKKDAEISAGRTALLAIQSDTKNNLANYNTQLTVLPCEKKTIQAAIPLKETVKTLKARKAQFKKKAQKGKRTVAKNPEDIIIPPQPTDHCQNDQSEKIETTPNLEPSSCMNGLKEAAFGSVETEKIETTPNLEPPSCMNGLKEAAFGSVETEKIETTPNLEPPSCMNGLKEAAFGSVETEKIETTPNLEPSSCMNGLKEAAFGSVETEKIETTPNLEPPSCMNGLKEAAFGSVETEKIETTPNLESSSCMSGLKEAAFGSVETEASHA

[7] = molecular target: T5, SERRATE (SE) fused with the N-terminal fragment of Venus (nVenus) (Arabidopsis) (UniProt Q9ZVD0); experiment: as above
T5 sequence: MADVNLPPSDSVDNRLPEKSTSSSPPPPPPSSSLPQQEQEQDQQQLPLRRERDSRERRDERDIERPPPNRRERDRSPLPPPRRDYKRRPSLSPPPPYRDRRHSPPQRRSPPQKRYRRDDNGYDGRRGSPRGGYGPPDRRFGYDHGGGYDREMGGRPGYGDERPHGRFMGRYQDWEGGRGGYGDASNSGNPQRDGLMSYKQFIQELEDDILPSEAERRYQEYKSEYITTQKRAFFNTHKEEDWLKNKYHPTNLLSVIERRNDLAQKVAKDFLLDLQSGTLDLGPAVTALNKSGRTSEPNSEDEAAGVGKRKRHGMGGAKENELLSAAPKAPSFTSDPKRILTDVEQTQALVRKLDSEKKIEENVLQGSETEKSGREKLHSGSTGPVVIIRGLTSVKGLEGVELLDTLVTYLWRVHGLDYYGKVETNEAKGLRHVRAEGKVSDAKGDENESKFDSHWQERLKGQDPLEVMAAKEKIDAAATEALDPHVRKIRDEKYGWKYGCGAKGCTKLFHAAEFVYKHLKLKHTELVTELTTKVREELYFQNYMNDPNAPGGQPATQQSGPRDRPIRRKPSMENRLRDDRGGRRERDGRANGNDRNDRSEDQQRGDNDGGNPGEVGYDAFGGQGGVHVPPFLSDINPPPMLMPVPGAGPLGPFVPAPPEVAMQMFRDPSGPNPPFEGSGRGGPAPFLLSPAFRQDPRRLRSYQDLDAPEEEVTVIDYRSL

DCL1-MYC (Arabidopsis) = DCL1-MYC (Arabidopsis) (UniProt Q9SP32); experiment: co-IP; PRL1-YFP or YFP co-expressed with DCL1-MYC or SE-MYC in N. benthamiana; extracts incubated with anti-YFP or anti-MYC antibodies coupled to protein G agarose beads; western blot
SE-MYC (Arabidopsis) = molecular target: T6, SE-MYC (Arabidopsis) (UniProt Q9ZVD0); experiment: as above
T6 sequence: T5 sequence

DCL3-YFP (Arabidopsis) = DCL3-YFP (Arabidopsis) (UniProt Q9LXW7); experiment: co-IP; E. coli protein extracts containing MBP-PRL1 or MBP mixed with N. benthamiana protein extracts containing DCL3-YFP, DCL4-YFP or YFP; IP with anti-YFP antibodies
DCL4-YFP (Arabidopsis) = DCL4-YFP (Arabidopsis) (UniProt P84634); experiment: as above

B2: PRL1-YFP expressed from the pPRL1::PRL1-YFP transgene in the prl1-2 complementation line (protein, UniProt Q42384 1-486)
chain: T1 sequence
binding [3]: binds

B3: PRL1 fused with the C-terminal fragment of cyan fluorescent protein (cCFP-PRL1) (protein, UniProt Q42384 1-486)
chain: T1 sequence
binding [4]: binds | binding [5]: binds | binding [6]: binds | binding [7]: binds

B4: PRL1-YFP transiently expressed in N. benthamiana (protein, UniProt Q42384 1-486)
chain: T1 sequence
binding (DCL1-MYC (Arabidopsis)): binds | binding (SE-MYC (Arabidopsis)): binds

Continued, values first:

binding [1]: binds
Molecule: RPB2, the second largest subunit of Pol II (from UniProt P38420 1-1188)

binding [2]: binds
Molecule: DCL1-MYC (from UniProt Q9SP32 1-1909) (enzyme)

binding [2]: binds
B1: SE-MYC (protein, UniProt Q9ZVD0 1-720)
chain: T5 sequence

binding (DCL3-YFP (Arabidopsis)): binds | binding (DCL4-YFP (Arabidopsis)): binds
B5: recombined PRL1 fused with a maltose-binding protein at its N-terminus (MBP-PRL1) (protein, UniProt Q42384 1-486)
chain: T1 sequence
